# According to patent US20210177023A1, “COMPOUNDS FOR SWEETNESS ENHANCEMENT” (International Flavors & Fragrances Inc., priority 2019, published 2021):
# For at least one compound, name, drawing or mass did not settle the structure.
# Assay: Enhancement of sucrose sweetness (flavor profile of sucrose solution with added substance)
# Assay type: in vivo, human
# Conditions: sucrose solution (4%), compound 5 ppm
# Description: A sucrose solution (4%) was prepared in water. Each of ligustrosidic acid and 2′-hydroxy ligustrosidic acid solutions of different concentrations was prepared in ethanol solution in water (50%). Ligustrosidic acid and 2′-hydroxy ligustrosidic acid were evaluated at 1 and 200 ppm, respectively. […] Solutions of Chaenomeles speciosa leave extract containing ligustrosidic acid (0.61%), 2′-hydroxy ligustrosidic acid (0.62%), verbascoside (0.69%) and isoverbascoside (0.21%) were prepared in ethanol solution in water (50%) to obtain a series of concentrations ranging from 1 to 1000 ppm. Solutions of sucrose (4%) and Luo Han Guo (120 ppm) were prepared as above (EXAMPLE II and III). In addition, solutions of fructose (3.4%), Reb A (GLG Life Tech Corporation, Canada) (90 ppm) and GSG (Glucosyl Steviol Glucosides, GLG Life Tech Corporation, Canada) (200 ppm) were also prepared in water. The sucrose solution (4%) with the addition of various amount of Chaenomeles speciosa leave extract was evaluated. […] Each of verbascoside and isoverbascoside solutions of different concentrations was prepared in ethanol solution in water (50%). Verbascoside and isoverbascoside were evaluated at 1 and 200 ppm, respectively.
smiles,measurement,value
C/C=C1/[C@H](O[C@@H]2O[C@H](CO)[C@@H](O)[C@H](O)[C@H]2O)OC=C(C(=O)OC)[C@H]1CC(=O)OCCc1ccc(O)c(O)c1 [oleuropein],effect observed in sucrose solution,"Some mouthfeel, slight drying or slightly fruity effect"
